Experimental data as given in the M2OR odorant receptor database.
Where a chain is given by its changes, count along the chain named. Only a part is listed here, and it is no random draw. The calls were merged from several studies; some rest on single wells. The list shows a part of the results.

Chains of the proteins cited; added tags and fusions are not shown. A line that says so, or that is headed by a name, gives the form on record, which may keep a tag or linker.
OR2J2, as listed by the source: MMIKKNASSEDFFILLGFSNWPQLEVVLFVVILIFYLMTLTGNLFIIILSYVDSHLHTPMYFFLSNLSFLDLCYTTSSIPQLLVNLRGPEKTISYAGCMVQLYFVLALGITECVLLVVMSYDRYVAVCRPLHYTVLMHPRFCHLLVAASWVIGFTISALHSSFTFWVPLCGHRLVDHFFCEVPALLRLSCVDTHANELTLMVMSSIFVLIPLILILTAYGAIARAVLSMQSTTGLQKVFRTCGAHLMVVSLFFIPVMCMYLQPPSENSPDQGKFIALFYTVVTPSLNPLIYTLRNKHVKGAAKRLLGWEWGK

Experiments:
Conditions in all cases: stereoisomer not certain
OR2G3 (Homo sapiens) = molecular target: T1, OR2G3 (Homo sapiens) (UniProt Q8NGZ4)
T1 sequence (whole entry): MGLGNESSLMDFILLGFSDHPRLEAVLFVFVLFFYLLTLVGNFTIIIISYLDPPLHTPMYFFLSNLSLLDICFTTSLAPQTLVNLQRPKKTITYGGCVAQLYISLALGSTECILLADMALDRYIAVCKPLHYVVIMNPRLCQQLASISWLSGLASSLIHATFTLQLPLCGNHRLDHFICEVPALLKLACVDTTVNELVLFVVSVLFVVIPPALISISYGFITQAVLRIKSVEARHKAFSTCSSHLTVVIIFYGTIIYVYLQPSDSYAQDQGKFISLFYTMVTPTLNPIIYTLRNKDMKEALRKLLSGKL
In short: (§1)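 Whether a receptor–molecule pair is responsive (active) rests on the original authors' judgment that its measured signal was statistically different from baseline. Pairs without that judgment are non-responsive (inactive). Sources used varied assay methods, commonly transient luciferase assays in mammalian cell lines.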

OR2G3 = test system: T2, OR2G3
T2 sequence (whole entry): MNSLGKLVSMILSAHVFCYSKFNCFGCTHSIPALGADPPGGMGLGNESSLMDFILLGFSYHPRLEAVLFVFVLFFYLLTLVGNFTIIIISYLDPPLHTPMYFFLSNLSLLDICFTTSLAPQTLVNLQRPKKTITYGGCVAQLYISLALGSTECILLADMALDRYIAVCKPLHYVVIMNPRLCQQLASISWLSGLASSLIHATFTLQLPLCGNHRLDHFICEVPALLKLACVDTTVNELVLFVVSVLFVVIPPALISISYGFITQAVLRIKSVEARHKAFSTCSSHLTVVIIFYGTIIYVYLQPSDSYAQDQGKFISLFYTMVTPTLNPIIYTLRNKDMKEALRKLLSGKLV
In short: as §1

OR2G6 (Homo sapiens) = molecular target: T3, OR2G6 (Homo sapiens) (UniProt Q5TZ20)
T3 sequence (whole entry): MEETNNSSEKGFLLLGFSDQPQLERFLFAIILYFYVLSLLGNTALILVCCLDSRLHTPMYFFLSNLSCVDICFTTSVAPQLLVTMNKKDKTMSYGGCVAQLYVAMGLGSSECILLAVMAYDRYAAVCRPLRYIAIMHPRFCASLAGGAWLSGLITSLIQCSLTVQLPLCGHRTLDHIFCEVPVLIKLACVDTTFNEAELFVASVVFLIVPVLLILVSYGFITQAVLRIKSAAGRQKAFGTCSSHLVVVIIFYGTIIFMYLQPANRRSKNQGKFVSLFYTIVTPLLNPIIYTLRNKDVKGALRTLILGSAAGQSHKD
In short: as §1

OR2H1 (Homo sapiens) = molecular target: T4, OR2H1 (Homo sapiens) (UniProt Q9GZK4)
T4 sequence (whole entry): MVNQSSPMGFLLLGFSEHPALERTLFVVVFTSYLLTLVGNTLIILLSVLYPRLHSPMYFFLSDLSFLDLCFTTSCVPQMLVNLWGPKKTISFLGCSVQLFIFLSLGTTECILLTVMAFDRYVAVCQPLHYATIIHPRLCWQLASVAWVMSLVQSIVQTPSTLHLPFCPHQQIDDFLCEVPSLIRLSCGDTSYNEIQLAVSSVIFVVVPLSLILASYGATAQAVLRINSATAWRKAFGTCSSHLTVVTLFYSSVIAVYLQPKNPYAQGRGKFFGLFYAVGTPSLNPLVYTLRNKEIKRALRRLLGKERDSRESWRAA
In short: as §1

OR2H2 [1] = test system: T5, OR2H2
T5 sequence (whole entry): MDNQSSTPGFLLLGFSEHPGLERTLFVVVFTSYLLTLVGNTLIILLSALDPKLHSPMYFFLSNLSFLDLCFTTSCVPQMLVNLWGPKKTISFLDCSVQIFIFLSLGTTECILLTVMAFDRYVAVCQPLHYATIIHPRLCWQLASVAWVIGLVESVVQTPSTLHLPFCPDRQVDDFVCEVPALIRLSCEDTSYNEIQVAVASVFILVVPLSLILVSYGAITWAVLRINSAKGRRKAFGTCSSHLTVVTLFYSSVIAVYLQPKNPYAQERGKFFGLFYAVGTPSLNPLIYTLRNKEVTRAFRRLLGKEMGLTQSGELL
In short: as §1

OR2H2 [2] = test system: T6, OR2H2; remark: listed apart in the source
T6 sequence (whole entry): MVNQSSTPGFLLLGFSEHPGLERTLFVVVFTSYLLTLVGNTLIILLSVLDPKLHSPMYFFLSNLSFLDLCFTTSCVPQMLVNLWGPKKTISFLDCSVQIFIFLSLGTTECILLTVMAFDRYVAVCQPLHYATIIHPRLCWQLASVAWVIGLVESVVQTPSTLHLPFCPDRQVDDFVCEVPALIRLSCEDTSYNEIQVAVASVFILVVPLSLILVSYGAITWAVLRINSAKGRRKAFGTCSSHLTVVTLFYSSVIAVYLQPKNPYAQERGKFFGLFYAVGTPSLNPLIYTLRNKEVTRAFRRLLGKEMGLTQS
In short: as §1

OR2J1 = test system: T7, OR2J1
T7 sequence (whole entry): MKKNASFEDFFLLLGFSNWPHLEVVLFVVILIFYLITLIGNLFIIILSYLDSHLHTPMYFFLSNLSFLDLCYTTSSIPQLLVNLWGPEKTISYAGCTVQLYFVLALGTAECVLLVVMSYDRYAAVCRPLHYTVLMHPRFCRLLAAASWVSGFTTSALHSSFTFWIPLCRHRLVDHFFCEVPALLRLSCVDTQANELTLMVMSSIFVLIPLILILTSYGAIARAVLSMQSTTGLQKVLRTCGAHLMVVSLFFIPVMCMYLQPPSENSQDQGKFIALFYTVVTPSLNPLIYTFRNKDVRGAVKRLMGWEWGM
In short: as §1

OR2J2 (Homo sapiens) = molecular target: T8, OR2J2 (Homo sapiens) (UniProt O76002)
T8 sequence (whole entry): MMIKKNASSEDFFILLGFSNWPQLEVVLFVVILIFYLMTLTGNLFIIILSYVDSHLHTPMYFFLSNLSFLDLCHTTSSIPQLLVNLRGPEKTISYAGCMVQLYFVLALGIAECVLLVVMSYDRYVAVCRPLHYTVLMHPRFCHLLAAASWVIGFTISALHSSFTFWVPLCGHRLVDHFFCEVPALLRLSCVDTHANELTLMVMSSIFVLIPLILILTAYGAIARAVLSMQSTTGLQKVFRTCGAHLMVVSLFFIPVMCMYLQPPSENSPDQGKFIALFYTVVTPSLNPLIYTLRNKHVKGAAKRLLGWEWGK
In short: as §1

OR2J2 [3] = test system: T9, OR2J2
T9 sequence (whole entry): T8 sequence (whole entry) with A218T
In short: as §1

OR2J2 [4] = test system: T10, OR2J2; remark: listed apart in the source
T10 sequence (whole entry): T8 sequence (whole entry) with H74Y, A146V, A218T
In short: as §1

OR2J2 [5] = test system: T11, OR2J2; remark: listed apart in the source
T11 sequence (whole entry): T8 sequence (whole entry) with H74Y, A111T, A146V
In short: as §1

OR2J3 (Homo sapiens) = molecular target: T12, OR2J3 (Homo sapiens) (UniProt O76001)
T12 sequence (whole entry): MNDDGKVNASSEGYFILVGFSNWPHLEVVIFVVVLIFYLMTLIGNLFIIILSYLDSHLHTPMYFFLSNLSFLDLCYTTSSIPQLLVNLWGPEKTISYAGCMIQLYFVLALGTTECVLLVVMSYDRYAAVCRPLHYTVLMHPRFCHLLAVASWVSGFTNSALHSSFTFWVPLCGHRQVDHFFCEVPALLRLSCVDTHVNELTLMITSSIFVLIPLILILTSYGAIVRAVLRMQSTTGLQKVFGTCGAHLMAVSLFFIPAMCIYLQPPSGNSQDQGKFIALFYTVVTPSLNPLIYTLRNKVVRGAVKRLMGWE
In short: as §1

OR2K2 (Homo sapiens) = molecular target: T13, OR2K2 (Homo sapiens) (UniProt Q8NGT1)
T13 sequence (whole entry): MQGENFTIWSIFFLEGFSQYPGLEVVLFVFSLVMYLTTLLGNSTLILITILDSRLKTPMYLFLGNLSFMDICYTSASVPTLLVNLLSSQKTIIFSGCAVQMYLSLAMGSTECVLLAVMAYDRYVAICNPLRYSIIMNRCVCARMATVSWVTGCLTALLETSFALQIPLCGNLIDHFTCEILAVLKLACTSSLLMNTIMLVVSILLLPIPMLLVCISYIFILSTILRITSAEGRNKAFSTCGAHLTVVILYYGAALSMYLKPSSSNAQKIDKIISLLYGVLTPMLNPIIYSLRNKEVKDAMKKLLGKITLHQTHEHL
In short: as §1

OR2L13 (Homo sapiens) = molecular target: T14, OR2L13 (Homo sapiens) (UniProt Q8N349)
T14 sequence (whole entry): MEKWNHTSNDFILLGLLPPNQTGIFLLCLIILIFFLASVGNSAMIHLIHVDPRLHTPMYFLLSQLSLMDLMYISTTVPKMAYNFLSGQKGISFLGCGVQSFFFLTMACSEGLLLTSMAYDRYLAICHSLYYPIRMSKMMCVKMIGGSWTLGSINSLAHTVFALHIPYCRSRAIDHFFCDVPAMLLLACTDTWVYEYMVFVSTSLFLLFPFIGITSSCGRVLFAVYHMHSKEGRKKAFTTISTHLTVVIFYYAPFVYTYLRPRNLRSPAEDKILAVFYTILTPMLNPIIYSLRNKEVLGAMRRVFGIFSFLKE
In short: as §1

OR2L2 (Homo sapiens) = molecular target: T15, OR2L2 (Homo sapiens) (UniProt Q8NH16)
T15 sequence (whole entry): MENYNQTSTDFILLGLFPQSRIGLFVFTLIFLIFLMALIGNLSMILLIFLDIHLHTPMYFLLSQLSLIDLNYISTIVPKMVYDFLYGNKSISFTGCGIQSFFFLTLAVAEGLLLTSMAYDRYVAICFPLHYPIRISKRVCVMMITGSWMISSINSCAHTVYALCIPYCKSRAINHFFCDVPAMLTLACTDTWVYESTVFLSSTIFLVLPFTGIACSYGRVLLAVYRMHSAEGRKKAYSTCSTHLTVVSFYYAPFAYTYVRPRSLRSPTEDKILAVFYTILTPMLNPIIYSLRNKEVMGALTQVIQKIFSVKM
In short: as §1

OR2L3 = test system: T16, OR2L3
T16 sequence (whole entry): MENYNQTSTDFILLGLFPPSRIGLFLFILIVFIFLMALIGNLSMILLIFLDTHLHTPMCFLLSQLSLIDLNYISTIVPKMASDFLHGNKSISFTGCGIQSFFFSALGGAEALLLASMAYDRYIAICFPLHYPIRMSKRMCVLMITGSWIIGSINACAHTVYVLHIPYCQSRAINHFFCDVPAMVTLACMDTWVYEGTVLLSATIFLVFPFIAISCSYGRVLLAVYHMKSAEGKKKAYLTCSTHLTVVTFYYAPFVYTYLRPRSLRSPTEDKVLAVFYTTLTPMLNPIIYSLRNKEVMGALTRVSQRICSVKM
In short: as §1

OR2L5 (Homo sapiens) = molecular target: T17, OR2L5 (Homo sapiens) (UniProt Q8NG80)
T17 sequence (whole entry): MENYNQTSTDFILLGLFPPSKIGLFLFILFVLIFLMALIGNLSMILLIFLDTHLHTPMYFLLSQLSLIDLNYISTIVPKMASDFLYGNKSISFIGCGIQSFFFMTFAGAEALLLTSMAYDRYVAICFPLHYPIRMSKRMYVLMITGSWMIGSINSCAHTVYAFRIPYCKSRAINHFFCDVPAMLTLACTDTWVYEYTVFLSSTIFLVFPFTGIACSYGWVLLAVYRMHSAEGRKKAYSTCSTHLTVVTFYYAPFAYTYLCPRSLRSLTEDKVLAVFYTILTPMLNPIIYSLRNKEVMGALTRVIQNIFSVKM
In short: as §1

OR2L8 = test system: T18, OR2L8
T18 sequence (whole entry): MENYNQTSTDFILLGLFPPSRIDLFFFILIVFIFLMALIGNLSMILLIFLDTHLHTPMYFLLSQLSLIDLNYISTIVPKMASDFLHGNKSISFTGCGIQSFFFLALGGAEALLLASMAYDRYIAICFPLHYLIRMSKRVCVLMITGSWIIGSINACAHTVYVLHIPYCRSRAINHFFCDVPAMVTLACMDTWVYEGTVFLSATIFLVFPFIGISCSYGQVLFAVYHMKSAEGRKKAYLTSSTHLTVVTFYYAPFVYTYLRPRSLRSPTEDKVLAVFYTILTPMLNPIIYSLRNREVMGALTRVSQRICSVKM
In short: as §1

OR2M2 = test system: T19, OR2M2
T19 sequence (whole entry): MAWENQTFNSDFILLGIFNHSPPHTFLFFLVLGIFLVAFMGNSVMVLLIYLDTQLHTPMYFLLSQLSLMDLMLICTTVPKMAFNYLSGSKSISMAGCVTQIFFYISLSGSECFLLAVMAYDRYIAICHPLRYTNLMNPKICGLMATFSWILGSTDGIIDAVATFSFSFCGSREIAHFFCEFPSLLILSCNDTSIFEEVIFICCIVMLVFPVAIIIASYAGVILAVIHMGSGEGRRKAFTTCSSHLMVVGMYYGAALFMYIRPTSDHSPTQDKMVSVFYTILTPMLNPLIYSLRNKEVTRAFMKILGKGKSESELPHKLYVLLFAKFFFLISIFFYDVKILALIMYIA
In short: as §1

OR2M3 (Homo sapiens) = molecular target: T20, OR2M3 (Homo sapiens) (UniProt Q8NG83)
T20 sequence (whole entry): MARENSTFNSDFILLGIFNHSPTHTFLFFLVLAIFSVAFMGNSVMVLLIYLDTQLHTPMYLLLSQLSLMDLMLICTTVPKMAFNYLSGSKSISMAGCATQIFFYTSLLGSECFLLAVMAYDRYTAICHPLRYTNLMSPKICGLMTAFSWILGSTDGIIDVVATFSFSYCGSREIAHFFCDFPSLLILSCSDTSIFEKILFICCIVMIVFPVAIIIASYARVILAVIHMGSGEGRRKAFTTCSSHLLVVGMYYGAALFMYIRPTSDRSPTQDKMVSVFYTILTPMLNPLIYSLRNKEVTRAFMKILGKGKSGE
In short: as §1

Measured: odorant receptor agonist call;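 also: active if original authors judged signal statistically different from baseline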

CCC(C)=O
active: OR2J3 (Homo sapiens)
inactive: all other assays above
